# Reference: patent publication US20030211469A1, “Inhibiting hepatitis c virus processing and replication” (priority 2003, published 2003)
# Some of these results come from one statement about several compounds together.
# System: HCV NS2/3 (810-1615BK)
# Assay type: biochemical, Hepatitis C virus (BK strain)
# Conditions: added to in vitro synthesized precursor 810-1615BK (after synthesis)
# Experimental: HCV residues 810-1615 of the BK strain, which includes all of NS2 and most of NS3 (termed 810-1615BK), was produced from the plasmid pCITE 810-1615BK (a gift from Dr. Nicola La Monica) and has been described previously by Pieroni, et al., (1997) J. Virol. 71, 6373. Following plasmid linearization with BLP1, RNA was transcribed with T7 RNA polymerase and purified. Protein translation was in rabbit reticulocyte lysate, 30° C. for 40 minutes using [^35S]-methionine as a label. Translation was then blocked by the addition of cycloheximide (250 μM final) and the samples were immediately frozen on dry ice.
# Prior to processing experiments, an aliquot of translated NS2/3 was thawed on ice. Processing of 810-1615BK was initiated by addition to room temperature solutions containing Triton X-100 at 1%, as described by Pieroni, et al., (1997) J. Virol. 71, 6373. The distribution of [^35S]-labeled proteins on dried gels was determined with a Phosphorimager (Molecular Dynamics). Product bands were quantified and expressed as a proportion of total signal in the gel lane so that variations in gel lane loading were normalized.
# NS2/3 processing reactions were performed with 810-1615BK. […] (Darke, et al., (1999) J. Biol. Chem. 274, 34511.) Inhibitors were dissolved in DMSO and protected from light. […]
compound,measurement,value
"CO[C@H]1[C@@H](OC)C[C@H](C)[C@@H](OC)C2=CC(=O)C=C(NC(=O)/C(C)=C/C=C\[C@H](OC)[C@@H](OC(N)=O)/C(C)=C/[C@@H]1C)C2=O [Herbimycin A, herbimycin A]",Inhibition of NS2/3 processing,up to 50%
